Reference: PMC4772494
Results are given in words; binding and its absence hold for the method and conditions named. In cells and extracts the contact can be indirect. Binding can be weak; no strength is given.

T1: Nod-like receptor protein 1 (NLRP1) (rat (endogenous in spinal cord tissue and primary spinal cord neurons)) (UniProt D9I2F9)
T1 sequence: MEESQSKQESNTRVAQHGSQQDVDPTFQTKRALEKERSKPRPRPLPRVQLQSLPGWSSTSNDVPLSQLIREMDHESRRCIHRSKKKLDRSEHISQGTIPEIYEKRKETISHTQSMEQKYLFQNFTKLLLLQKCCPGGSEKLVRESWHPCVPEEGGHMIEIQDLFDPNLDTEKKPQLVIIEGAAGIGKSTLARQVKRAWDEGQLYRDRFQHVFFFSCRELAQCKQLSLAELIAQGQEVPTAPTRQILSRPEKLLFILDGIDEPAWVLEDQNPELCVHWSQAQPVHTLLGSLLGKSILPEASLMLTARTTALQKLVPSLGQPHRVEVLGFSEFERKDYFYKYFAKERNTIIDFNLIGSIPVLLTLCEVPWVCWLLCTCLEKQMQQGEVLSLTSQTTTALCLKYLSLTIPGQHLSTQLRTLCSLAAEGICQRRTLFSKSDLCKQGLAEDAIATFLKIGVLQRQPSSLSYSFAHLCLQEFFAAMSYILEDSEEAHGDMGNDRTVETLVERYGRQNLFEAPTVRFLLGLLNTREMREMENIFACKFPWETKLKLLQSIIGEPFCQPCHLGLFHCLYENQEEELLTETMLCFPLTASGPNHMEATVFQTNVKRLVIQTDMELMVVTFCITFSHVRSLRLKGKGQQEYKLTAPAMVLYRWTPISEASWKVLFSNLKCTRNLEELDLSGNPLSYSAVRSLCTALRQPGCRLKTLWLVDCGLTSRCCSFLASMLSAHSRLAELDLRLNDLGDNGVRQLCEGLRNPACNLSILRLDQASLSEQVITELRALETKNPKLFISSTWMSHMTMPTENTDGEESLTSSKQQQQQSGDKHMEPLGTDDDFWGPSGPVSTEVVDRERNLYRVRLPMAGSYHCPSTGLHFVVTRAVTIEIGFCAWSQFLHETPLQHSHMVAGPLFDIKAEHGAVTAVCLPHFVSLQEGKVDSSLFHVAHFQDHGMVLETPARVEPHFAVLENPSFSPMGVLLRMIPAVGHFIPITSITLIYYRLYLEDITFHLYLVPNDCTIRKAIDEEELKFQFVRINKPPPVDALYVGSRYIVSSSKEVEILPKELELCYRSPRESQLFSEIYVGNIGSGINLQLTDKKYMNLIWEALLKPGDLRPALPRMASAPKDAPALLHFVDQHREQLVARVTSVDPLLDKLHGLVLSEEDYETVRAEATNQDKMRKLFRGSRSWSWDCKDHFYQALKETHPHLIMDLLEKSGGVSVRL


Key:
[1] = molecular target: T1, Nod-like receptor protein 1 (NLRP1) (rat (endogenous in spinal cord tissue and primary spinal cord neurons)); experiment: co-IP; rat spinal cord lysates (sham, or 24 h after SCI) in 50 mM Tris-HCl pH 7.4, 150 mM NaCl, 0.5 % NP-40; anti-ASC or anti-NLRP1 antibody coupled to magnetic Dynabeads, overnight at 4 °C, low-pH elution, immunoblot; pre-immune serum as negative control
[2] = molecular target: T1, Nod-like receptor protein 1 (NLRP1) (rat (endogenous in spinal cord tissue and primary spinal cord neurons)); experiment: co-IP; primary rat spinal cord neuron lysates (untreated, or 6 h 10 μM H2O2) in 50 mM Tris-HCl pH 7.4, 150 mM NaCl, 0.5 % NP-40; anti-NLRP1 antibody coupled to magnetic Dynabeads, overnight at 4 °C, low-pH elution, immunoblot
[3] = molecular target: apoptosis-associated speck-like protein containing a caspase recruitment domain (ASC) (rat (endogenous in spinal cord tissue and primary spinal cord neurons)); experiment: co-IP; rat spinal cord lysates (sham, or 24 h after SCI) in 50 mM Tris-HCl pH 7.4, 150 mM NaCl, 0.5 % NP-40; anti-ASC or anti-NLRP1 antibody coupled to magnetic Dynabeads, overnight at 4 °C, low-pH elution, immunoblot; pre-immune serum as negative control

| Molecule | binding [1] | binding [2] | binding [3] |
| --- | --- | --- | --- |
| apoptosis-associated speck-like protein containing a caspase recruitment domain (ASC) | binds | binds | – |
| Nod-like receptor protein 1 (NLRP1) (protein, UniProt D9I2F9 1-1218) MEESQSKQESNTRVAQHGSQQDVDPTFQTKRALEKERSKPRPRPLPRVQLQSLPGWSSTSNDVPLSQLIREMDHESRRCIHRSKKKLDRSEHISQGTIPEIYEKRKETISHTQSMEQKYLFQNFTKLLLLQKCCPGGSEKLVRESWHPCVPEEGGHMIEIQDLFDPNLDTEKKPQLVIIEGAAGIGKSTLARQVKRAWDEGQLYRDRFQHVFFFSCRELAQCKQLSLAELIAQGQEVPTAPTRQILSRPEKLLFILDGIDEPAWVLEDQNPELCVHWSQAQPVHTLLGSLLGKSILPEASLMLTARTTALQKLVPSLGQPHRVEVLGFSEFERKDYFYKYFAKERNTIIDFNLIGSIPVLLTLCEVPWVCWLLCTCLEKQMQQGEVLSLTSQTTTALCLKYLSLTIPGQHLSTQLRTLCSLAAEGICQRRTLFSKSDLCKQGLAEDAIATFLKIGVLQRQPSSLSYSFAHLCLQEFFAAMSYILEDSEEAHGDMGNDRTVETLVERYGRQNLFEAPTVRFLLGLLNTREMREMENIFACKFPWETKLKLLQSIIGEPFCQPCHLGLFHCLYENQEEELLTETMLCFPLTASGPNHMEATVFQTNVKRLVIQTDMELMVVTFCITFSHVRSLRLKGKGQQEYKLTAPAMVLYRWTPISEASWKVLFSNLKCTRNLEELDLSGNPLSYSAVRSLCTALRQPGCRLKTLWLVDCGLTSRCCSFLASMLSAHSRLAELDLRLNDLGDNGVRQLCEGLRNPACNLSILRLDQASLSEQVITELRALETKNPKLFISSTWMSHMTMPTENTDGEESLTSSKQQQQQSGDKHMEPLGTDDDFWGPSGPVSTEVVDRERNLYRVRLPMAGSYHCPSTGLHFVVTRAVTIEIGFCAWSQFLHETPLQHSHMVAGPLFDIKAEHGAVTAVCLPHFVSLQEGKVDSSLFHVAHFQDHGMVLETPARVEPHFAVLENPSFSPMGVLLRMIPAVGHFIPITSITLIYYRLYLEDITFHLYLVPNDCTIRKAIDEEELKFQFVRINKPPPVDALYVGSRYIVSSSKEVEILPKELELCYRSPRESQLFSEIYVGNIGSGINLQLTDKKYMNLIWEALLKPGDLRPALPRMASAPKDAPALLHFVDQHREQLVARVTSVDPLLDKLHGLVLSEEDYETVRAEATNQDKMRKLFRGSRSWSWDCKDHFYQALKETHPHLIMDLLEKSGGVSVRL | – | – | binds |

Second part, the molecule after the results:

| binding [1] | binding [2] | binding [3] | Molecule |
| --- | --- | --- | --- |
| – | – | binds | caspase-1 p20 (domain or fragment, UniProt P43527 119-296) NKEGGAFPGPSGSLKFCPLEIAQKLWKENHSEIYPIMKTPTRTRLALIICNTDFQHLSRRVGADVDLREMKLLLQDLGYTVKVKENLTALEMTKELKEFAACPEHKTSDSTFLVFMSHGLQEGICGITYSNEVADILKVDTIFQMMNTLKCPSLKDKPKVIIIQACRGEKQGVVLLKD |
| – | – | binds | pro-caspase-1 (enzyme, UniProt P43527 1-402) MADKVLRAKRKQFINSVSVGTINGLLDELLEKRVLNQEEMDTIKLANITVMEKARDLCDHVTKKGPRASQMFITYICNEDCYLAEILELQSGPSAETVFVTEDSKGGHPFSSETKEKLNKEGGAFPGPSGSLKFCPLEIAQKLWKENHSEIYPIMKTPTRTRLALIICNTDFQHLSRRVGADVDLREMKLLLQDLGYTVKVKENLTALEMTKELKEFAACPEHKTSDSTFLVFMSHGLQEGICGITYSNEVADILKVDTIFQMMNTLKCPSLKDKPKVIIIQACRGEKQGVVLLKDSVGNSEEGFLTDAIFEDDGIKKAHIEKDFIAFCSSTPDNVSWRHPVRGSLFIESLIKHMKEYAWSCDLEDIFRKVRFSFEQPDSRLQMPTTERVTLTKRFYLFPGH |
